Data as given in PubChem BioAssay AID1224830 (NIAID, 2016)
The deposit covers about 18,000 reagents; shown is a random part of them. About 2,900 of all reagents (16%) were called active. 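Calls are made per well; low scores hint the gene aids the LPS response, high scores that it dampens it.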 Repeated entries: four replicate wells of each siRNA pool.

Screen: 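Host factors that control LPS-induced TNF expression in human macrophages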 (primary screen)
System: human THP-1 monocytic leukaemia cells, TNF dual-luciferase reporter clone, PMA-differentiated to macrophage-like cells
Reagents: siRNA pool against human genes, 50 nM
Timing: LPS for 4 h, given about 3 days after siRNA transfection
Conditions: bacterial LPS (TLR4 ligand), 10 ng/ml
Measured: 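TNF firefly reporter luminescence divided by renilla, normalised to the plate median, then turned into a robust z-score for each replicate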
Direction: TNF reporter robust z-score: higher = stronger TNF reporter response to LPS
Hit rule: 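a well is active when its z-score exceeds 2.8 or falls below -1.5; control wells carry no call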

With CPED1 (GeneID 79974) [SID315459600], what was measured?
TNF reporter robust z-score: -1.02; activity call: inactive

Which result is listed for CPED1 (GeneID 79974) [SID315459600]?
TNF reporter robust z-score: -1.2; activity call: inactive

How did the screen score CPED1 (GeneID 79974) [SID315459600]?
TNF reporter robust z-score: -1.06; activity call: inactive

For CPED1 (GeneID 79974) [SID315459600], what does the deposit list?
TNF reporter robust z-score: -0.81; activity call: inactive

With NOM1 (GeneID 64434) [SID315458934], how do the results read?
TNF reporter robust z-score: -0.01; activity call: inactive

For NOM1 (GeneID 64434) [SID315458934], what does the deposit list?
TNF reporter robust z-score: 0.28; activity call: inactive

How did the screen score NOM1 (GeneID 64434) [SID315458934]?
TNF reporter robust z-score: -1.19; activity call: inactive

How did the screen score NOM1 (GeneID 64434) [SID315458934]?
TNF reporter robust z-score: -0.38; activity call: inactive

What did the screen give for MEMO1 (GeneID 51072) [SID315456443]?
TNF reporter robust z-score: 1.01; activity call: inactive

For MEMO1 (GeneID 51072) [SID315456443], how do the results read?
TNF reporter robust z-score: 1.15; activity call: inactive

Which result is listed for MEMO1 (GeneID 51072) [SID315456443]?
TNF reporter robust z-score: 0.61; activity call: inactive

With MEMO1 (GeneID 51072) [SID315456443], how do the results read?
TNF reporter robust z-score: 0.33; activity call: inactive

What is on record for GJB1 (GeneID 2705) [SID315448903]?
TNF reporter robust z-score: -1.46; activity call: inactive

What is on record for GJB1 (GeneID 2705) [SID315448903]?
TNF reporter robust z-score: -1.25; activity call: inactive

With GJB1 (GeneID 2705) [SID315448903], how do the results read?
TNF reporter robust z-score: -0.78; activity call: inactive

For GJB1 (GeneID 2705) [SID315448903], what was measured?
TNF reporter robust z-score: 0.04; activity call: inactive

With AGBL1 (GeneID 123624) [SID315461583], how do the results read?
TNF reporter robust z-score: -1.39; activity call: inactive

What did the screen give for AGBL1 (GeneID 123624) [SID315461583]?
TNF reporter robust z-score: -1.66; activity call: active

With AGBL1 (GeneID 123624) [SID315461583], how do the results read?
TNF reporter robust z-score: -1.28; activity call: inactive

With AGBL1 (GeneID 123624) [SID315461583], how do the results read?
TNF reporter robust z-score: -0.85; activity call: inactive

With SOX8 (GeneID 30812) [SID315456287], what was measured?
TNF reporter robust z-score: 0.66; activity call: inactive

With SOX8 (GeneID 30812) [SID315456287], what does the deposit list?
TNF reporter robust z-score: 0.23; activity call: inactive

What is on record for SOX8 (GeneID 30812) [SID315456287]?
TNF reporter robust z-score: -0.67; activity call: inactive

With SOX8 (GeneID 30812) [SID315456287], what was measured?
TNF reporter robust z-score: -1.28; activity call: inactive

What is on record for CUL5 (GeneID 8065) [SID315452387]?
TNF reporter robust z-score: 20.3; activity call: active

How did the screen score CUL5 (GeneID 8065) [SID315452387]?
TNF reporter robust z-score: -1.04; activity call: inactive

What did the screen give for CUL5 (GeneID 8065) [SID315452387]?
TNF reporter robust z-score: -0.76; activity call: inactive

Which result is listed for CUL5 (GeneID 8065) [SID315452387]?
TNF reporter robust z-score: -0.33; activity call: inactive

What did the screen give for MAP7D2 (GeneID 256714) [SID315463535]?
TNF reporter robust z-score: -1.31; activity call: inactive

What did the screen give for MAP7D2 (GeneID 256714) [SID315463535]?
TNF reporter robust z-score: -0.88; activity call: inactive

For MAP7D2 (GeneID 256714) [SID315463535], what does the deposit list?
TNF reporter robust z-score: -1.85; activity call: active

For MAP7D2 (GeneID 256714) [SID315463535], what does the deposit list?
TNF reporter robust z-score: -1.02; activity call: inactive

What is on record for ALDH3A2 (GeneID 224) [SID315447274]?
TNF reporter robust z-score: -1.22; activity call: inactive

What did the screen give for ALDH3A2 (GeneID 224) [SID315447274]?
TNF reporter robust z-score: -0.09; activity call: inactive

With ALDH3A2 (GeneID 224) [SID315447274], what does the deposit list?
TNF reporter robust z-score: -1.17; activity call: inactive

For ALDH3A2 (GeneID 224) [SID315447274], what was measured?
TNF reporter robust z-score: -1.12; activity call: inactive

What did the screen give for OCM2 (GeneID 4951) [SID315450345]?
TNF reporter robust z-score: -0.21; activity call: inactive

What did the screen give for OCM2 (GeneID 4951) [SID315450345]?
TNF reporter robust z-score: 0.46; activity call: inactive

What is on record for OCM2 (GeneID 4951) [SID315450345]?
TNF reporter robust z-score: 0.15; activity call: inactive

What is on record for OCM2 (GeneID 4951) [SID315450345]?
TNF reporter robust z-score: 0.41; activity call: inactive

What is on record for NMB (GeneID 4828) [SID315450260]?
TNF reporter robust z-score: 0.29; activity call: inactive

With NMB (GeneID 4828) [SID315450260], what does the deposit list?
TNF reporter robust z-score: -0.46; activity call: inactive

For NMB (GeneID 4828) [SID315450260], what does the deposit list?
TNF reporter robust z-score: -0.52; activity call: inactive

What did the screen give for NMB (GeneID 4828) [SID315450260]?
TNF reporter robust z-score: 0.83; activity call: inactive

How did the screen score ARIH2 (GeneID 10425) [SID315454077]?
TNF reporter robust z-score: 0.59; activity call: inactive

What did the screen give for ARIH2 (GeneID 10425) [SID315454077]?
TNF reporter robust z-score: -0.89; activity call: inactive

What did the screen give for ARIH2 (GeneID 10425) [SID315454077]?
TNF reporter robust z-score: -0.78; activity call: inactive

What did the screen give for ARIH2 (GeneID 10425) [SID315454077]?
TNF reporter robust z-score: 0.23; activity call: inactive

For RUVBL1 (GeneID 8607) [SID315452682], what was measured?
TNF reporter robust z-score: 0.78; activity call: inactive

For RUVBL1 (GeneID 8607) [SID315452682], how do the results read?
TNF reporter robust z-score: 3.71; activity call: active

How did the screen score RUVBL1 (GeneID 8607) [SID315452682]?
TNF reporter robust z-score: 2.18; activity call: inactive

Which result is listed for RUVBL1 (GeneID 8607) [SID315452682]?
TNF reporter robust z-score: 1.48; activity call: inactive

Which result is listed for PGD (GeneID 5226) [SID315450545]?
TNF reporter robust z-score: -0.99; activity call: inactive

For PGD (GeneID 5226) [SID315450545], what was measured?
TNF reporter robust z-score: -1.2; activity call: inactive

With PGD (GeneID 5226) [SID315450545], how do the results read?
TNF reporter robust z-score: -1.08; activity call: inactive

For PGD (GeneID 5226) [SID315450545], what does the deposit list?
TNF reporter robust z-score: -0.67; activity call: inactive

With FMOD (GeneID 2331) [SID315448739], how do the results read?
TNF reporter robust z-score: -0.52; activity call: inactive

What is on record for FMOD (GeneID 2331) [SID315448739]?
TNF reporter robust z-score: -0.62; activity call: inactive

With FMOD (GeneID 2331) [SID315448739], how do the results read?
TNF reporter robust z-score: -1; activity call: inactive

Which result is listed for FMOD (GeneID 2331) [SID315448739]?
TNF reporter robust z-score: -0.25; activity call: inactive

Sorted by “TNF reporter robust z-score” (ascending): some entries from above
AGBL1 (GeneID 123624) [SID315461583] | TNF reporter robust z-score: -1.66; activity call: active
GJB1 (GeneID 2705) [SID315448903] | TNF reporter robust z-score: -1.46; activity call: inactive
AGBL1 (GeneID 123624) [SID315461583] | TNF reporter robust z-score: -1.39; activity call: inactive
AGBL1 (GeneID 123624) [SID315461583] | TNF reporter robust z-score: -1.28; activity call: inactive
GJB1 (GeneID 2705) [SID315448903] | TNF reporter robust z-score: -1.25; activity call: inactive
GJB1 (GeneID 2705) [SID315448903] | TNF reporter robust z-score: -0.78; activity call: inactive
GJB1 (GeneID 2705) [SID315448903] | TNF reporter robust z-score: 0.04; activity call: inactive
